# Assay results published in US7303915B2, “In vitro-differentiated retinal ganglion cells and method for producing same” (Wisconsin Alumni Research Foundation, priority 2005, dated 2007).
# For at least one compound, name, drawing or mass did not settle the structure.
# Test system: RGC-5 cells
# Assay: Morphological differentiation and neurite count of RGC-5 cells
structure (smiles),measurement,setting,value
"CN(C)c1ccc(O)c2c1C[C@H]1C[C@H]3[C@H](N(C)C)C(O)=C(C(N)=O)C(=O)[C@@]3(O)C(O)=C1C2=O [minocycline, Minocycline]",effect of pretreatment on differentiation with SS,"thirty minutes pretreatment 10 μM, then 1 μM staurosporine for twenty-four hours",did not inhibit differentiation with SS
same,differentiation of undifferentiated cells by the agent alone,without staurosporine,did not differentiate
